Our source for the binding values is publication PMC10897489.

Sequences of proteins named here, by UniProt entry; tags and fusion partners are left off. A change or cut given only in a name is not applied to a line headed by its entry. A line that says so, or that is headed by a name, gives the form on record, which may keep a tag or linker.
UBAP2L F518L/F523G (YFP-tagged) (F8W726, form named): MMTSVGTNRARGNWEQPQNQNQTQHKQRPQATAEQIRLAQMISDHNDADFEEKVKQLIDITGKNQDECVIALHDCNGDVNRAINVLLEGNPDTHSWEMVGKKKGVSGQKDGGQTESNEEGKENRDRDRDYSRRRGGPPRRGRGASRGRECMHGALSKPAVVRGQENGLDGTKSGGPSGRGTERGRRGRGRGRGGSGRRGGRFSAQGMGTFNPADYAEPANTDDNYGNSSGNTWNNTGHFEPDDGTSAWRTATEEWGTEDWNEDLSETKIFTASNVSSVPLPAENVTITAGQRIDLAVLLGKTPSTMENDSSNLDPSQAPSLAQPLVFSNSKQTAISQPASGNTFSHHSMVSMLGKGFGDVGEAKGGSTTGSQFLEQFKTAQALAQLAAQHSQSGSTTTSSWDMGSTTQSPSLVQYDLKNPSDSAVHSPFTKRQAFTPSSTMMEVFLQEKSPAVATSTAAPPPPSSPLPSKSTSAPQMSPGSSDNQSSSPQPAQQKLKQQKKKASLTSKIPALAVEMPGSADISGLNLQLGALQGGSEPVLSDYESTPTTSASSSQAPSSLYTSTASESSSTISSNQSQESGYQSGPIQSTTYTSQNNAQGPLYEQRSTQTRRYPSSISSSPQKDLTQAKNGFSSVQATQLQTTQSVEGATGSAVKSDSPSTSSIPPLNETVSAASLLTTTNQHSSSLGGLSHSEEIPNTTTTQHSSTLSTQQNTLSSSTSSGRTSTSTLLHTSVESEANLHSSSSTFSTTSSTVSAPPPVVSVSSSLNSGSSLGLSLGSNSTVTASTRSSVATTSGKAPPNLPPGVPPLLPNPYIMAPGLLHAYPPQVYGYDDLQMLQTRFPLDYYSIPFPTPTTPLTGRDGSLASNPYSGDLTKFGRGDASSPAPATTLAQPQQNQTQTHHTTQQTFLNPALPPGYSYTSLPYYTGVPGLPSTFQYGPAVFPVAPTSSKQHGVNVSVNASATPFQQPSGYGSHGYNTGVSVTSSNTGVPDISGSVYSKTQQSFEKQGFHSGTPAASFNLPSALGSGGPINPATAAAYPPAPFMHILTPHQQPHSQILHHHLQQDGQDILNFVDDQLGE
UniProt Q13283: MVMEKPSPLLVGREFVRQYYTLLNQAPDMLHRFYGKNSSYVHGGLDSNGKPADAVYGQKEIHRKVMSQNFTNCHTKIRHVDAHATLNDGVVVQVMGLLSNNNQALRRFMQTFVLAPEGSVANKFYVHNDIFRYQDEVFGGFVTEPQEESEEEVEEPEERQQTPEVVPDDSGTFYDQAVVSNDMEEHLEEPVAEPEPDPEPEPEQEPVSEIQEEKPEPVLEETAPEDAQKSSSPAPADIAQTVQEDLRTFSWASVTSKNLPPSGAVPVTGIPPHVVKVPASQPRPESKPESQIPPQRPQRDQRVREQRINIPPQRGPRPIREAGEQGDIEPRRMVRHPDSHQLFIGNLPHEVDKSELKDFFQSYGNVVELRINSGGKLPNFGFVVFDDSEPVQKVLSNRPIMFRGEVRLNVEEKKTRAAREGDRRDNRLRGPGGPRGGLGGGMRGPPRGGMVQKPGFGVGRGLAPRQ

These are yes or no findings as the source states them, for the method shown. Binding seen in cells or lysates may run through a third protein.

This assay addresses UBAP2L F518L/F523G (YFP-tagged) (human) (UniProt F8W726). The experiment in a line: co-IP; YFP-tagged bait from transfected HeLa cells on GFP-trap beads, 1 h at 4 °C, washes with 150 mM NaCl, 50 mM Tris pH 7.4, 0.05% NP40; western blot.

As for “G3BP1 (endogenous) (from UniProt Q13283 1-466)”, the binding result is “no binding”.
